Values from PubChem BioAssay AID1508597 (Cure First, 2020).
Here is a random part of about 2,100 deposited reagents. 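Calls flag viability under 80% in either arm, not effects specific to rucaparib; the reference for percent is not stated.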 Some reagents were tested in more than one well and are listed for each. Not stated in the record: the 100% reference.

Purpose: 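Genes whose silencing sensitises or protects ovarian cancer cells against rucaparib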 (primary screen)
Cell system: human ovarian carcinoma lines grown from tumours: OCI-P5x (papillary serous) and OCI-C5x (clear cell)
Reagents: siRNA pool against human genes, 1.25 pmol siRNA per well
Duration: 72 h or 96 h, depending on the cell culture
Conditions: rucaparib 20 µM (about IC30) or vehicle, present until read-out
Detection: 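ATP luminescence measured at 72 or 96 h according to the culture, then normalised and expressed as percent viability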
Scale: viability, normalised: higher = more viable cells remaining
Active means: 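a well counts as a hit if its normalised viability is under 80 percent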
Meaning of the calls: active = viability under 80%; inactive = viability 80% or more

gene,rucaparib or vehicle,cell line,technical replicate,"viability, normalised (%)",activity call
SMARCA1,Rucaparib,OCI-C5x (clear cell),1,40.1,active
SMARCA1,Rucaparib,OCI-C5x (clear cell),2,37.9,active
SMARCA1,Rucaparib,OCI-C5x (clear cell),3,45,active
SMARCA1,Rucaparib,OCI-P5x (serous),1,45.6,active
SMARCA1,Rucaparib,OCI-P5x (serous),2,53.9,active
SMARCA1,Rucaparib,OCI-P5x (serous),3,49,active
SMARCA1,Vehicle,OCI-C5x (clear cell),1,26.2,active
SMARCA1,Vehicle,OCI-C5x (clear cell),2,45.7,active
SMARCA1,Vehicle,OCI-C5x (clear cell),3,36.5,active
SMARCA1,Vehicle,OCI-P5x (serous),1,53.6,active
SMARCA1,Vehicle,OCI-P5x (serous),2,37.5,active
SMARCA1,Vehicle,OCI-P5x (serous),3,70.9,active
NEK5,Rucaparib,OCI-C5x (clear cell),1,56.2,active
NEK5,Rucaparib,OCI-C5x (clear cell),2,61.3,active
NEK5,Rucaparib,OCI-C5x (clear cell),3,64,active
NEK5,Rucaparib,OCI-P5x (serous),1,90.5,inactive
NEK5,Rucaparib,OCI-P5x (serous),2,100,inactive
NEK5,Rucaparib,OCI-P5x (serous),3,74.6,active
NEK5,Vehicle,OCI-C5x (clear cell),1,74,active
NEK5,Vehicle,OCI-C5x (clear cell),2,63.9,active
NEK5,Vehicle,OCI-C5x (clear cell),3,66.7,active
NEK5,Vehicle,OCI-P5x (serous),1,87.6,inactive
NEK5,Vehicle,OCI-P5x (serous),2,74.4,active
NEK5,Vehicle,OCI-P5x (serous),3,66.3,active

Next part; the last 2 above are carried over.
gene,rucaparib or vehicle,cell line,technical replicate,"viability, normalised (%)",activity call
NEK5,Vehicle,OCI-P5x (serous),2,74.4,active
NEK5,Vehicle,OCI-P5x (serous),3,66.3,active
CLDN5,Rucaparib,OCI-C5x (clear cell),1,60.6,active
CLDN5,Rucaparib,OCI-C5x (clear cell),2,40.9,active
CLDN5,Rucaparib,OCI-C5x (clear cell),3,62.7,active
CLDN5,Rucaparib,OCI-P5x (serous),1,59.9,active
CLDN5,Rucaparib,OCI-P5x (serous),2,67.3,active
CLDN5,Rucaparib,OCI-P5x (serous),3,65.4,active
CLDN5,Vehicle,OCI-C5x (clear cell),1,47,active
CLDN5,Vehicle,OCI-C5x (clear cell),2,70,active
CLDN5,Vehicle,OCI-C5x (clear cell),3,46.3,active
CLDN5,Vehicle,OCI-P5x (serous),1,70.4,active
CLDN5,Vehicle,OCI-P5x (serous),2,69,active
CLDN5,Vehicle,OCI-P5x (serous),3,69.9,active
MATK,Rucaparib,OCI-C5x (clear cell),1,50.2,active
MATK,Rucaparib,OCI-C5x (clear cell),1,60.4,active
MATK,Rucaparib,OCI-C5x (clear cell),2,76.3,active
MATK,Rucaparib,OCI-C5x (clear cell),2,59.4,active
MATK,Rucaparib,OCI-C5x (clear cell),3,66.1,active
MATK,Rucaparib,OCI-C5x (clear cell),3,60.6,active
MATK,Rucaparib,OCI-P5x (serous),1,110,inactive
MATK,Rucaparib,OCI-P5x (serous),1,111,inactive
MATK,Rucaparib,OCI-P5x (serous),2,44.2,active
MATK,Rucaparib,OCI-P5x (serous),2,82,inactive
MATK,Rucaparib,OCI-P5x (serous),3,105,inactive
MATK,Rucaparib,OCI-P5x (serous),3,96.7,inactive
MATK,Vehicle,OCI-C5x (clear cell),1,117,inactive
MATK,Vehicle,OCI-C5x (clear cell),1,63.8,active
MATK,Vehicle,OCI-C5x (clear cell),2,55.7,active
MATK,Vehicle,OCI-C5x (clear cell),2,67.1,active
MATK,Vehicle,OCI-C5x (clear cell),3,73.9,active
MATK,Vehicle,OCI-C5x (clear cell),3,72.8,active
MATK,Vehicle,OCI-P5x (serous),1,111,inactive
MATK,Vehicle,OCI-P5x (serous),1,94.9,inactive
MATK,Vehicle,OCI-P5x (serous),2,102,inactive
MATK,Vehicle,OCI-P5x (serous),2,103,inactive
MATK,Vehicle,OCI-P5x (serous),3,93.3,inactive
MATK,Vehicle,OCI-P5x (serous),3,116,inactive
